Data published in the supplement of paper PMC10849652.
The other results are listed elsewhere or left out.

Amino acid sequences for entries named in this document (tags omitted). A change or cut given only in a name is not applied to a line headed by its entry.
UniProt P63172, whole entry, looked up: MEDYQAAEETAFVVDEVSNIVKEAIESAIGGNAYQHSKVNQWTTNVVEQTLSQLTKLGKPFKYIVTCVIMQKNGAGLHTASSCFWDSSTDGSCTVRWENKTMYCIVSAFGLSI
UniProt Q9H410: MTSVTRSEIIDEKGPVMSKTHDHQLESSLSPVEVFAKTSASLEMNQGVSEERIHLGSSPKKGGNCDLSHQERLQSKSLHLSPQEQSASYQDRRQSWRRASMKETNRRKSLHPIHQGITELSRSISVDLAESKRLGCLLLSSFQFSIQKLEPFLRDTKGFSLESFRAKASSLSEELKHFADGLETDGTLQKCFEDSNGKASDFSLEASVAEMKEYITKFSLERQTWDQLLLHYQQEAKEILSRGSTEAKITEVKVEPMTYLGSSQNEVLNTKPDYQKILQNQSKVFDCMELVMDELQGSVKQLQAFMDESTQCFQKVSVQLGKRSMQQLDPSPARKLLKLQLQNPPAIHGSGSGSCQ
UniProt P23919: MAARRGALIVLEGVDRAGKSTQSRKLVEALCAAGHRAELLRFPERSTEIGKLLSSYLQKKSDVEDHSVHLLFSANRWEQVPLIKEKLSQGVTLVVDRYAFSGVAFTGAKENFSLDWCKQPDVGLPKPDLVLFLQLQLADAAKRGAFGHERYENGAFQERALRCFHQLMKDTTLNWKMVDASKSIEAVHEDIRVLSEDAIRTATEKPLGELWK
UniProt Q99615: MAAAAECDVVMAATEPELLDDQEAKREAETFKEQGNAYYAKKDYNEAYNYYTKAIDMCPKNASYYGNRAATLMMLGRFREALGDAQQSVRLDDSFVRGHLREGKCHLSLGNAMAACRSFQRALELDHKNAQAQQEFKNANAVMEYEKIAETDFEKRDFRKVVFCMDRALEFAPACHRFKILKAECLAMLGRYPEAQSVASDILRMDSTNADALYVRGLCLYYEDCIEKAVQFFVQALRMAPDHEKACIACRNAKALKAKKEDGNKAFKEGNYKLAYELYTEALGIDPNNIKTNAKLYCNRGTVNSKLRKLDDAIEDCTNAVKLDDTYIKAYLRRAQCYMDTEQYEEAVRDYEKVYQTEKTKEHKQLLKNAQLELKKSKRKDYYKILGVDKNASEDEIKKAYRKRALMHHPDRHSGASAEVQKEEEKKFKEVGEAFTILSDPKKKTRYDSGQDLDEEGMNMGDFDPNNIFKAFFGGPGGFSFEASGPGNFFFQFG
UniProt Q6P3W2: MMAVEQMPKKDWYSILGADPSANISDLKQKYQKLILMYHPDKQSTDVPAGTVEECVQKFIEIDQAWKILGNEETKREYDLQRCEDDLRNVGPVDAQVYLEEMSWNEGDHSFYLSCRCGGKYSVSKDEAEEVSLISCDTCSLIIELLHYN
UniProt Q6UX65: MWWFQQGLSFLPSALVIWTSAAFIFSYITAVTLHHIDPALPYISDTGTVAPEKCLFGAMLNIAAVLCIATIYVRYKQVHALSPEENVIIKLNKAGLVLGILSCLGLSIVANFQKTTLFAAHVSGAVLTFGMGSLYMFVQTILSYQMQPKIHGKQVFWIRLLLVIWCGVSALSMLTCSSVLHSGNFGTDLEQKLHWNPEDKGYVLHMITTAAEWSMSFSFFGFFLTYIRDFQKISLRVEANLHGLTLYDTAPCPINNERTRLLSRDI
UniProt Q86YN1: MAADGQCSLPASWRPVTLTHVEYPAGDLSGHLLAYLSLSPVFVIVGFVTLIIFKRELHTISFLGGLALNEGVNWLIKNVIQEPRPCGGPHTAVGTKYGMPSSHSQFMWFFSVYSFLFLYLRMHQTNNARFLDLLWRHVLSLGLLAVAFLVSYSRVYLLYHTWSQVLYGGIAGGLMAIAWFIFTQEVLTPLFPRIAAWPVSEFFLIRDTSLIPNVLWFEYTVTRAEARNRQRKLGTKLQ
UniProt Q96KC8: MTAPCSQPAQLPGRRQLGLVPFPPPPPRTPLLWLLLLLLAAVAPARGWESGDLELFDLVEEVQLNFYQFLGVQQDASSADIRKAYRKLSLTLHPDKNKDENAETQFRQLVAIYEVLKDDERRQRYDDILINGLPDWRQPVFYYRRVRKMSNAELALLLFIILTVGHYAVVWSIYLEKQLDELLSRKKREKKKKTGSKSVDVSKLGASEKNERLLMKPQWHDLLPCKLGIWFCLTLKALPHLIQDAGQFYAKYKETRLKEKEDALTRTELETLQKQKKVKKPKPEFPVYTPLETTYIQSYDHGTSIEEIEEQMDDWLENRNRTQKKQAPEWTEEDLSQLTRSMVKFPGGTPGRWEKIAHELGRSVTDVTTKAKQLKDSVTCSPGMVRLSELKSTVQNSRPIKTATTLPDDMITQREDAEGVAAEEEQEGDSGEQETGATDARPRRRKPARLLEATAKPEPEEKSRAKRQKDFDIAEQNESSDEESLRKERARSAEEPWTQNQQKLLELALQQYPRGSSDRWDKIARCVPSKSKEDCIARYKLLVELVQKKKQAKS
UniProt P51808: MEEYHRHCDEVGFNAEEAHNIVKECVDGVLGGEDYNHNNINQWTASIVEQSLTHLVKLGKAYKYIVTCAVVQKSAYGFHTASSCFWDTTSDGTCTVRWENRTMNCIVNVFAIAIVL
UniProt Q96EV8: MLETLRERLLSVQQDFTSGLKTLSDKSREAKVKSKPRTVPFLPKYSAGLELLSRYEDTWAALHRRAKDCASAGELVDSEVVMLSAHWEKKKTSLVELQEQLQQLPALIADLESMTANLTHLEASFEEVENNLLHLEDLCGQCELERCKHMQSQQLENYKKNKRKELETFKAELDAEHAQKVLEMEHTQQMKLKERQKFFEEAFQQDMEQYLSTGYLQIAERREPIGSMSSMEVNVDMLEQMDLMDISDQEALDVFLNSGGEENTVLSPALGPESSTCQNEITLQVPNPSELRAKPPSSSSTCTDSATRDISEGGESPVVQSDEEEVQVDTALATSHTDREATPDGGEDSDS
UniProt Q5QJE6: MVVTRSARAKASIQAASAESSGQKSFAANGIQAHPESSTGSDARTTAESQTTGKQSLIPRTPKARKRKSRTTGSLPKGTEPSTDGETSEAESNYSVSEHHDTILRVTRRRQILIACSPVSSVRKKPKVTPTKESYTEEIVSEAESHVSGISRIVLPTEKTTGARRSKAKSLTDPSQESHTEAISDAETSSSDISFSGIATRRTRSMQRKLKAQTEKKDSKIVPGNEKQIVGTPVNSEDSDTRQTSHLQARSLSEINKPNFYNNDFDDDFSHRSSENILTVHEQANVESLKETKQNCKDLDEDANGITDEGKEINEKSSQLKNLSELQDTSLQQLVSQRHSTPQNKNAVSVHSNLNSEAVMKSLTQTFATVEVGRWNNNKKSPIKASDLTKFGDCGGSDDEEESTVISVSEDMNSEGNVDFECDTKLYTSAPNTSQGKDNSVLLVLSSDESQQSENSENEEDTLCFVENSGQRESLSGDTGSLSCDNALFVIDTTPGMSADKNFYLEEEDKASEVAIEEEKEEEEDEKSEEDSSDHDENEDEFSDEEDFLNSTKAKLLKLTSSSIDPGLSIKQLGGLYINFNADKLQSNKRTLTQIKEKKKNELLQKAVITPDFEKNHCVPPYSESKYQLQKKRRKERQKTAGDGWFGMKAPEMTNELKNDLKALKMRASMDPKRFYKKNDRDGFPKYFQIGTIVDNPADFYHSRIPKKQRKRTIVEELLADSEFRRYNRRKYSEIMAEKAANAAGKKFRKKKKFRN
UniProt Q16254: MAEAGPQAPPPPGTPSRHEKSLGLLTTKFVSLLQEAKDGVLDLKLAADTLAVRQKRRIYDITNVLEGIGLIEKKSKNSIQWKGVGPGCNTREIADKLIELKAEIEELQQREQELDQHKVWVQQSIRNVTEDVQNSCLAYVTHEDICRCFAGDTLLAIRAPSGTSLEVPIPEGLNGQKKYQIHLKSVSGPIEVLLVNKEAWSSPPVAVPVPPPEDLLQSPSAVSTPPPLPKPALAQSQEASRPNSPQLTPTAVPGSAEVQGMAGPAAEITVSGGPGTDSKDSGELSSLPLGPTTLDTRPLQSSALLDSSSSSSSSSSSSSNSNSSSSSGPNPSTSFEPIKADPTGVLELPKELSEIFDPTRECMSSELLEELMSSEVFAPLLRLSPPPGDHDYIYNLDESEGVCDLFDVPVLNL
UniProt Q9Y3R5: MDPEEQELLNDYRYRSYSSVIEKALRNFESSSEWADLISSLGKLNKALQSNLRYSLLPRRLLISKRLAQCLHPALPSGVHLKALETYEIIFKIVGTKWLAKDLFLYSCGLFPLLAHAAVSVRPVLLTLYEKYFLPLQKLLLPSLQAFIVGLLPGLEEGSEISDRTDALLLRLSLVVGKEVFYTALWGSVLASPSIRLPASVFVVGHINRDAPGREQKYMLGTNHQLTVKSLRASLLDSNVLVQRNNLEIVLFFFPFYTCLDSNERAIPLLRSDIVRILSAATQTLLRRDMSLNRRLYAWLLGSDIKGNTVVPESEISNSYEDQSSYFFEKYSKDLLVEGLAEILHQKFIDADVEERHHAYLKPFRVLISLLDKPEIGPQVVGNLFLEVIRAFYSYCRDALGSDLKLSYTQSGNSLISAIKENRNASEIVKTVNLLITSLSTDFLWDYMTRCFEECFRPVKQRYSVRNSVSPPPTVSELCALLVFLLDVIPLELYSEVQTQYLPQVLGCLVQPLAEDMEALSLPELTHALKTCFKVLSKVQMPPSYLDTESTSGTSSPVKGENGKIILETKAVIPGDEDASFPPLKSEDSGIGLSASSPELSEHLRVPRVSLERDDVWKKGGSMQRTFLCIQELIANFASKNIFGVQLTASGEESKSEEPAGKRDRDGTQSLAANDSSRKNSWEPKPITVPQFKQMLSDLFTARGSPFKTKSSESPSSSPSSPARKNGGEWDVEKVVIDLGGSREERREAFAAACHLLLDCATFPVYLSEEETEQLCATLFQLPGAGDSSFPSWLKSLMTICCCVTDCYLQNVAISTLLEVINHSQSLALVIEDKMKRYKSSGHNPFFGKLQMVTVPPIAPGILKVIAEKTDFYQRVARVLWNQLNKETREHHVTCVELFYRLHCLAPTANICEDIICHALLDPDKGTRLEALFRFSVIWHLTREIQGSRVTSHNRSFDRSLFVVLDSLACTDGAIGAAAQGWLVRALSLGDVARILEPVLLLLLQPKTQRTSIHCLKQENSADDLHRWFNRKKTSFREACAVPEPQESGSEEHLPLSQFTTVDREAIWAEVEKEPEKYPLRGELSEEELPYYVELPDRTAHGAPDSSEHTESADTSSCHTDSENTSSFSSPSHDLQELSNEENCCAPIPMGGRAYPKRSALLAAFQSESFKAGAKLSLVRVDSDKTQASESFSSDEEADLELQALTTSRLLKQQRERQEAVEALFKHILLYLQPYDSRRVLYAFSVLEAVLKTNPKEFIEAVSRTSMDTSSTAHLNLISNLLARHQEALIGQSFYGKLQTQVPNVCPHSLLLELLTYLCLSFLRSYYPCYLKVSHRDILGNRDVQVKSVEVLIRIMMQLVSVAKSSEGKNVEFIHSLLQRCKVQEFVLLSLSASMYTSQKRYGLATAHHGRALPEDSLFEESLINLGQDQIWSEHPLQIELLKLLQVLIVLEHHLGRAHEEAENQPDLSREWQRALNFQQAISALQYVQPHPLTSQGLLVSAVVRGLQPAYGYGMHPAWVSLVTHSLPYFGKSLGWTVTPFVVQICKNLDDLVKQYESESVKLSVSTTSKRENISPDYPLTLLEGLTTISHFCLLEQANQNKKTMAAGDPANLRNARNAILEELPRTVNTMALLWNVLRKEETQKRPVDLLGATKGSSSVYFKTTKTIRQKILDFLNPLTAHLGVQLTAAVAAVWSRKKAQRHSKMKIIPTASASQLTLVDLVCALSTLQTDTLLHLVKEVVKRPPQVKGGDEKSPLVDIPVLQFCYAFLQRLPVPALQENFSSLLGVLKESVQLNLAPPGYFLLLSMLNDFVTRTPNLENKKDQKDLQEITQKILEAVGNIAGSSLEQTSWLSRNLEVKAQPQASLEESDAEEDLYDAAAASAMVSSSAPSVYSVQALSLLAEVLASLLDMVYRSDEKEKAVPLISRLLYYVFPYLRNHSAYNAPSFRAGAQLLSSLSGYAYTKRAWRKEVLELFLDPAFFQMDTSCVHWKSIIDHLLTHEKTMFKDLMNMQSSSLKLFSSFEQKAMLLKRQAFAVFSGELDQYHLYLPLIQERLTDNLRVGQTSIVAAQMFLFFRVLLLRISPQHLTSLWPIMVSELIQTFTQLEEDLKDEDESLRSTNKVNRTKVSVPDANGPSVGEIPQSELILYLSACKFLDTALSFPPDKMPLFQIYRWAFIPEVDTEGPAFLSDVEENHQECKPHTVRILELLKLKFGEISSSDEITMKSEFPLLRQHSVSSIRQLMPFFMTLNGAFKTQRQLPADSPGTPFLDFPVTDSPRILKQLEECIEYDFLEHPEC

How the values were obtained:
Test in all cases: log2 fold change, soluble protein after heating vs DMSO (PISA); higher = thermal stabilisation; K562 cells, 10 uM, 30 min; active = over 0.2 and 3.5 SD of the protein, either way, in both replicates (recomputed)
[1] = compound: CC[C@@H]1C(=O)N(C)c2cnc(Nc3ccc(C(=O)NC4CCN(C)CC4)cc3OC)nc2N1C1CCCC1
Method in brief: (§1)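 K562 cells at 2×10^6 cells/mL were given 10 μM compound for 30 min. Aliquots then went through 3 min of heating across 48°C-58°C, were pooled, and were extracted in PBS with 0.5% NP-40 at 4°C, and the supernatant after 21,000xg for 90 min was quantified by TMTpro 16plex LC-MS/MS with channel sums equalised. Thermal stability relative to control samples, from duplicates, is given as log2 fold change.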

volasertib = compound: CC[C@@H]1C(=O)N(C)c2cnc(Nc3ccc(C(=O)N[C@H]4CC[C@H](N5CCN(CC6CC6)CC5)CC4)cc3OC)nc2N1C(C)C [volasertib]
Method in brief: as §1

[2] = compound: CC[C@H](C)N1C=C(C2=C(C=C(C=C21)C3=CN=C(C=C3)N4CCNCC4)C(=O)NCC5=C(C=C(NC5=O)C)C)C
Method in brief: as §1

[3] = compound: CCn1c(C(=O)N(C2CC2)C2CC2)cc2c3c(ncn3C)c(Nc3cc(C)n(C)n3)nc21
Method in brief: as §1

[4] = compound: CCn1cc(-c2ccnc3[nH]c(-c4cccc(CN(C)C)c4)cc23)c(-c2ccc(NC(=O)N(C)C)cc2)n1
Method in brief: as §1

[5] = compound: CN(C)CC(=O)Nc1ccc2[nH]c(=O)c3ccccc3c2c1
Method in brief: as §1

rosiglitazone = compound: CN(CCOC1=CC=C(C=C1)C[C@H]2C(=O)NC(=O)S2)C3=CC=CC=N3 (racemic) [rosiglitazone]
Method in brief: as §1

[6] = compound: CN1C2=C(C3=C1C(=O)N(N=C3)CC4=CC(=CC=C4)N)SC(=C2)S(=O)C
Method in brief: as §1

[7] = compound: CN1CCC(CNc2ccc3ncc(-c4cccc(OC(F)(F)F)c4)n3n2)CC1
Method in brief: as §1

saracatinib = compound: CN1CCN(CCOc2cc(OC3CCOCC3)c3c(Nc4c(Cl)ccc5c4OCO5)ncnc3c2)CC1 [saracatinib]
Method in brief: as §1

sotrastaurin = compound: CN1CCN(c2nc(C3=C(c4c[nH]c5ccccc45)C(=O)NC3=O)c3ccccc3n2)CC1 [sotrastaurin]
Method in brief: as §1

alvocidib = compound: CN1CC[C@H](c2c(O)cc(O)c3c(=O)cc(-c4ccccc4Cl)oc23)[C@H](O)C1 [alvocidib]
Method in brief: as §1

Tubastatin A = compound: CN1CCc2c(c3ccccc3n2Cc2ccc(C(=O)NO)cc2)C1 [Tubastatin A]
Method in brief: as §1

[8] = compound: CNC(=O)C1=CC=CC=C1NC2=NC(=NC=C2Cl)NC3=C(C=C(C=C3)N4CCOCC4)OC
Method in brief: as §1

defactinib = compound: CNC(=O)c1ccc(Nc2ncc(C(F)(F)F)c(NCc3nccnc3N(C)S(C)(=O)=O)n2)cc1 [defactinib]
Method in brief: as §1

rucaparib = compound: CNCc1ccc(-c2[nH]c3cc(F)cc4c3c2CCNC4=O)cc1 [rucaparib]
Method in brief: as §1

[9] = compound: CNc1nc(-c2ccc3c(N)n[nH]c3c2)cc(N2C[C@@H](C(=O)NC3CCCCC3)CC[C@H]2C)n1
Method in brief: as §1

encorafenib = compound: COC(=O)N[C@@H](C)CNc1nccc(-c2cn(C(C)C)nc2-c2cc(Cl)cc(NS(C)(=O)=O)c2F)n1 [encorafenib]
Method in brief: as §1

[10] = compound: COC(=O)[C@H](CCSC)NC(=O)C1=C(C=C(C=C1)NC[C@H](CS)N)C2=CC=CC=C2
Method in brief: as §1

epoxomicin = compound: CC[C@H](C)[C@@H](C(=O)N[C@@H]([C@@H](C)O)C(=O)N[C@@H](CC(C)C)C(=O)[C@]1(CO1)C)NC(=O)[C@H]([C@@H](C)CC)N(C)C(=O)C [epoxomicin]
Method in brief: as §1

Target | log2 fold change [1] | log2 fold change (volasertib) | log2 fold change [2] | log2 fold change [3] | log2 fold change [4] | log2 fold change [5] | log2 fold change (rosiglitazone) | log2 fold change [6] | log2 fold change [7] | log2 fold change (saracatinib) | log2 fold change (sotrastaurin) | log2 fold change (alvocidib) | log2 fold change (Tubastatin A) | log2 fold change [8] | log2 fold change (defactinib) | log2 fold change (rucaparib) | log2 fold change [9] | log2 fold change (encorafenib) | log2 fold change [10] | log2 fold change (epoxomicin)
DYNLT1 (UniProt P63172) | inactive: 0.02 | inactive: 0.007 | inactive: 0.045 | inactive: -0.093 | inactive: -0.114 | inactive: 0.082 | inactive: -0.044 | inactive: -0.026 | inactive: 0.131 | inactive: -0.021 | inactive: -0.138 | inactive: -0.236 | inactive: 0.148 | inactive: 0.097 | inactive: -0.04 | inactive: 0.019 | inactive: -0.015 | inactive: 0.075 | inactive: 0.013 | 
DNPEP (UniProt B9ZVU2) | inactive: 0.001 | inactive: 0.248 |  | inactive: 0.027 | inactive: 0.085 | inactive: 0.019 |  | inactive: -0.057 | inactive: -0.047 | inactive: -0.008 | inactive: 0.026 | inactive: -0.207 | inactive: -0.009 | inactive: -0.024 | inactive: -0.023 | inactive: -0.048 | inactive: -0.035 | inactive: -0.031 | inactive: -0.068 | 
DVL2 (UniProt O14641) | inactive: 0.181 | inactive: -0.253 |  |  | inactive: -0.067 |  |  |  | inactive: 0.204 |  | inactive: -0.341 |  |  |  |  | inactive: -0.119 |  | inactive: 0.059 |  | inactive: -0.163
DYSF isoform 13 (UniProt O75923) | inactive: 0.062 |  | inactive: -0.145 | inactive: 0.014 | inactive: -0.034 | inactive: 0.023 | inactive: -0.081 |  | inactive: -0.016 |  | inactive: 0.253 |  | inactive: -0.148 | inactive: 0.009 | inactive: 0.03 | inactive: 0.125 |  | inactive: -0.066 | inactive: 0.264 | inactive: -0.195
DOCK1 (UniProt Q14185) | inactive: 0.127 | inactive: -0.241 |  | inactive: -0.07 |  | inactive: -0.019 | inactive: -0.017 | inactive: 0.028 |  | inactive: -0.059 | inactive: -0.109 | inactive: 0.053 |  | inactive: -0.071 | inactive: -0.022 | inactive: -0.228 | inactive: -0.104 | inactive: 0.109 | inactive: 0.053 | inactive: -0.052
DSN1 (UniProt Q9H410) | inactive: -0.218 | active: -0.418 | inactive: -0.034 |  |  | inactive: 0.007 |  | inactive: -0.008 |  | inactive: 0.032 | inactive: -0.042 |  | inactive: 0.082 | inactive: -0.031 | inactive: -0.146 | inactive: 0.076 | inactive: 0.016 | inactive: 0.02 | inactive: 0.029 | inactive: -0.004
DTYMK (UniProt P23919) | inactive: 0.044 | inactive: 0.171 | inactive: -0.03 |  | active: -0.245 | inactive: 0.01 |  | inactive: -0.04 | inactive: -0.037 | inactive: -0.02 | inactive: 0.06 |  | inactive: -0.022 | inactive: -0.062 | inactive: 0.004 | inactive: -0.044 | inactive: 0.003 | inactive: 0.005 | inactive: 0.013 | inactive: 0.039
DNAJC7 (UniProt Q99615) | inactive: -0.079 | active: -0.266 | inactive: 0.104 |  | inactive: -0.025 | inactive: 0.014 |  | inactive: -0.052 | inactive: -0.142 | inactive: 0.001 | inactive: -0.05 |  | inactive: 0.002 | inactive: 0.034 | inactive: -0.072 | inactive: -0.016 | inactive: 0.056 | inactive: 0.045 | inactive: -0.003 | inactive: 0.073
DNAJC24 (UniProt Q6P3W2) | inactive: -0.318 | inactive: -0.244 | inactive: 0.029 |  |  | inactive: -0.027 |  | inactive: -0.284 |  | inactive: 0.185 | inactive: -0.081 |  | inactive: -0.094 | inactive: -0.033 | inactive: 0.116 | inactive: 0.059 | active: -0.351 | inactive: 0.038 | inactive: 0.099 | inactive: 0.034
DRAM2 (UniProt Q6UX65) | inactive: 0.069 | inactive: -0.038 |  |  |  | inactive: 0.093 |  |  |  |  | inactive: 0.063 | inactive: 0.024 | inactive: -0.146 |  | inactive: -0.07 | inactive: -0.159 |  | inactive: 0.103 | inactive: 0.129 | inactive: -0.089
DOLPP1 (UniProt Q86YN1) | inactive: -0.062 | inactive: -0.008 | inactive: -0.052 |  |  | inactive: 0.133 |  |  |  |  |  |  | inactive: -0.066 | inactive: 0.012 | inactive: -0.134 | inactive: 0.087 |  | inactive: -0.057 | inactive: 0.156 | 
DNAJC1 (UniProt Q96KC8) | inactive: -0.097 | inactive: -0.185 | inactive: 0.024 |  | inactive: 0.014 | inactive: 0.002 |  | inactive: -0.01 | inactive: -0.144 | inactive: -0.02 | inactive: -0.028 |  | inactive: 0.018 | inactive: 0.046 | inactive: 0.004 | inactive: 0.03 | inactive: -0.011 | inactive: 0.003 | inactive: 0.005 | inactive: 0.037
DYNLT3 (UniProt P51808) | inactive: 0.182 |  | inactive: -0.015 |  |  |  | inactive: 0.059 |  |  |  |  | inactive: 0.087 |  |  |  | inactive: -0.001 |  | inactive: -0.074 |  | 
DTNBP1 (UniProt Q96EV8) | inactive: -0.017 | inactive: 0.009 | inactive: -0.002 |  | inactive: -0.086 | inactive: -0.009 |  | inactive: -0.028 | inactive: 0.01 | inactive: -0.072 | inactive: 0.026 |  | inactive: 0.023 | inactive: 0 | inactive: -0.054 | inactive: -0.015 | inactive: 0.005 | inactive: 0.014 | inactive: 0.054 | inactive: 0.048
ECHDC3 (UniProt Q96DC8) | inactive: -0.005 |  | inactive: 0.167 | inactive: -0.003 | inactive: -0.05 | inactive: 0.028 | inactive: 0.02 |  | inactive: 0.17 |  | inactive: -0.138 |  | inactive: -0.008 | inactive: 0.037 | inactive: -0.022 | inactive: -0.043 |  | inactive: -0.11 | inactive: -0.118 | inactive: 0.076
DNTTIP2 (UniProt Q5QJE6) | inactive: 0.047 | inactive: -0.002 | inactive: 0.031 |  | inactive: 0.09 | inactive: -0.028 |  | inactive: 0.226 | inactive: -0.028 | inactive: -0.038 | inactive: -0.104 |  | inactive: 0.145 | inactive: 0.011 | inactive: -0.131 | inactive: 0.171 | inactive: 0.03 | inactive: 0.067 | inactive: 0.121 | inactive: -0.144
E2F4 (UniProt Q16254) | inactive: -0.057 | inactive: -0.139 | inactive: 0.036 |  | inactive: -0.025 | inactive: -0.024 |  | inactive: 0.009 | active: -0.245 | inactive: -0.012 | inactive: -0.056 |  | inactive: 0.028 | inactive: -0.045 | inactive: -0.122 | inactive: -0.025 | inactive: -0.02 | inactive: -0.002 | inactive: -0.042 | inactive: -0.008
DNM1L isoform 2 (UniProt O00429) | inactive: -0.024 | inactive: -0.154 | inactive: -0.045 | inactive: 0.011 | inactive: 0.065 | inactive: 0.132 | inactive: 0.136 | inactive: -0.098 | inactive: -0.094 | inactive: 0.235 | inactive: 0.089 | inactive: -0.112 | inactive: -0.042 | inactive: -0.009 | inactive: -0.007 | inactive: -0.029 | inactive: -0.226 | inactive: -0.023 | inactive: -0.137 | 
DOP1B (UniProt Q9Y3R5) | inactive: 0.018 |  | inactive: -0.097 |  | inactive: -0.108 | inactive: -0.166 | inactive: 0.129 |  | inactive: -0.239 |  | inactive: 0.317 | inactive: 0.035 | inactive: -0.004 |  | inactive: 0.048 | inactive: -0.27 |  | inactive: -0.095 | inactive: 0.274 | inactive: -0.08
DSTYK (UniProt Q6XUX3) | inactive: 0.076 |  | inactive: 0.16 | inactive: -0.18 | inactive: 0.005 | inactive: 0.046 | inactive: 0.067 | inactive: -0.096 | inactive: -0.247 | inactive: 0.013 |  | inactive: -0.228 | inactive: -0.152 | inactive: -0.079 | inactive: -0.192 | inactive: -0.004 | inactive: 0.166 | inactive: -0.075 | inactive: -0.117 | inactive: -0.137

Two entries from above, reformatted.
Target	log2 fold change [1]	log2 fold change (volasertib)	log2 fold change [2]	log2 fold change [3]	log2 fold change [4]	log2 fold change [5]	log2 fold change (rosiglitazone)	log2 fold change [6]	log2 fold change [7]	log2 fold change (saracatinib)	log2 fold change (sotrastaurin)	log2 fold change (alvocidib)	log2 fold change (Tubastatin A)	log2 fold change [8]	log2 fold change (defactinib)	log2 fold change (rucaparib)	log2 fold change [9]	log2 fold change (encorafenib)	log2 fold change [10]	log2 fold change (epoxomicin)
DVL2 (UniProt O14641)	inactive: 0.181	inactive: -0.253			inactive: -0.067				inactive: 0.204		inactive: -0.341					inactive: -0.119		inactive: 0.059		inactive: -0.163
DYSF isoform 13 (UniProt O75923)	inactive: 0.062		inactive: -0.145	inactive: 0.014	inactive: -0.034	inactive: 0.023	inactive: -0.081		inactive: -0.016		inactive: 0.253		inactive: -0.148	inactive: 0.009	inactive: 0.03	inactive: 0.125		inactive: -0.066	inactive: 0.264	inactive: -0.195
